Measurements: article PMC2927601
No constants are given. Whether binding was seen depends on the method and setting. Binding seen in cells or lysates may run through a third protein. Some binding calls cover weakened binding; strength is not graded here.

Amino acid sequences for entries named in this document (tags omitted). A change or cut given only in a name is not applied to a line headed by its entry.
UniProt O75340: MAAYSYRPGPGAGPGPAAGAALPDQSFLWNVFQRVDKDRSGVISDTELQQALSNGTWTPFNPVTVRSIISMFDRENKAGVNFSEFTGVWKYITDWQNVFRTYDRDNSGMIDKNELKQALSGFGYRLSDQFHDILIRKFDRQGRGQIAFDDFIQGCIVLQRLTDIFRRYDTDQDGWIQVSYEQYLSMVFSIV
UniProt P50995: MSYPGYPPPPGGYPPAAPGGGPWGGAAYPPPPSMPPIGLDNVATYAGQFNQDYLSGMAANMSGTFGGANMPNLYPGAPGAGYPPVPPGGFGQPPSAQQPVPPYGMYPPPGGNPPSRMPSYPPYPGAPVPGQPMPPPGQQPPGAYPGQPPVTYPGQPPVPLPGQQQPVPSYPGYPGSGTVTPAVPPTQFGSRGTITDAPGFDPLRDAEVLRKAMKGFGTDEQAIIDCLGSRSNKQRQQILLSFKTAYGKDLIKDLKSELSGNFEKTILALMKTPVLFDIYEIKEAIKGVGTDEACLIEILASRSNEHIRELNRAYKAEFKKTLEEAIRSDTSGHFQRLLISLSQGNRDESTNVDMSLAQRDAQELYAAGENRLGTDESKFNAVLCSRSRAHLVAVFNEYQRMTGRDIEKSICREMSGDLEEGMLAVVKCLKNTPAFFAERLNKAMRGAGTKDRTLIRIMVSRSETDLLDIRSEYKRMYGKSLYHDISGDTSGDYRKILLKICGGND

What was measured:
Experiment in all cases: pull-down; GST-fused ALG-2 proteins on glutathione Sepharose beads, cleared lysates of HEK293 cells; pulldown products analysed by Western blotting with specific antibodies; as described previously [40]; only the target purified
[1] = molecular target: GST-fused ALG-2 F122A mutant (human) (UniProt O75340)
[2] = molecular target: GST-fused ALG-2 F122G mutant (human) (UniProt O75340)
GST-ALG-2^F122S (human) = GST-ALG-2^F122S (human) (UniProt O75340)
[3] = molecular target: GST-fused ALG-2, wild type (human) (UniProt O75340)
[4] = molecular target: GST-fused ALG-2 F122W mutant (human) (UniProt O75340)

binding [1]: binds | binding [2]: binds | binding (GST-ALG-2^F122S (human)): binds | binding [3]: binds | binding [4]: binds
Substance: annexin A11, endogenous protein (from UniProt P50995 1-505)
